# The other results are listed elsewhere or left out.
# The chains behind the UniProt entries cited, without tags or fusion partners.
# UniProt Q0JBA9, entry or part of it: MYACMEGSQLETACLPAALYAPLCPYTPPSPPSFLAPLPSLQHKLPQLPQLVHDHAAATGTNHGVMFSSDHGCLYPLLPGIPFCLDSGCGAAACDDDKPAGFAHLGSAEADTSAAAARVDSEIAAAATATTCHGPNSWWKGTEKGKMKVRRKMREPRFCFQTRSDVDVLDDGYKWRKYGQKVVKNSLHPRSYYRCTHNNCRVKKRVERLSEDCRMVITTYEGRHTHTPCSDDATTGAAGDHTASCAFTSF
# Molecular target: OsWRKY34 (Oryza sativa, UniProt Q0JBA9 1-250)
# Test: protein-binding microarray (RPBM); PBS, 2% BSA, 51.3 ng/ul salmon testes DNA, 50 uM zinc acetate, 200 nM TF, 25 C, 1 h; high values mean tight binding
# Conditions: protein: recombinant; tags: N-terminal polyhistidine and DsRed monomer fusion (pET32a); label: CyDye5-dUTP incorporated in the synthesized complementary strand; 3' TTTTT single-stranded linker to array surface; dsDNA, one strand shown
# Summary of the method: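 Transcription factors, each fused N-terminally to a polyhistidine tag and DsRed, were expressed in E. coli BL21-CodonPlus and purified on Ni–NTA. A custom Agilent array was made double-stranded by primer extension with Cy5-dUTP and blocked with 2% BSA. It was incubated with 200 nM protein in PBS, 2% BSA, salmon testes DNA and 50 µM zinc acetate at 25 °C for 1 h, then washed. The binding signal is per-feature fluorescence intensity (arbitrary units) read on an Axon 4000B scanner.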
row,Sequence,binding signal
1,CCGCAGCCACCTCACCGCGTCAATCCGCCGCCGCCACGCGCGGAGTCACCTAGTGCAG,8670 fluorescence intensity (a.u.)
2,TCCCTGGCAATGGCCCTACTACCTCCCTGTTCCCTGAAACCGGAGTCACCTAGTGCAG,9070 fluorescence intensity (a.u.)
3,TTAGTTGTTCTTATTGAGACGAGCATCTTCGCCCCATCTTCGGAGTCACCTAGTGCAG,8550 fluorescence intensity (a.u.)
4,CTCTCCCCAGATCCGCGCCTCGAAACATTCATCTCGTCTCCGGAGTCACCTAGTGCAG,8640 fluorescence intensity (a.u.)
5,CAGTGCTCCCTGCTGTCCACGCCGGCGCCGCGCCTCCCCACGGAGTCACCTAGTGCAG,8160 fluorescence intensity (a.u.)
6,TCCTGTTTAAAGTTTTTTTTTGTGATTTTTAGATAAAAAACGGAGTCACCTAGTGCAG,9030 fluorescence intensity (a.u.)
7,GAGGTTAGGCAAGTTTGACCATGTTAGATGAGTGTTTGGTCGGAGTCACCTAGTGCAG,9180 fluorescence intensity (a.u.)
8,ACCATTATTCTGTTGTCAACTGCATGCCGCAACAAACTGACGGAGTCACCTAGTGCAG,8420 fluorescence intensity (a.u.)
9,TTCGCTCACCTCTCGATCGATCGACCTGCCAACATCAACACGGAGTCACCTAGTGCAG,10400 fluorescence intensity (a.u.)
10,CCATTGTCCCCGCCGTCCCCGCCGTCCACGCCGGCGCCGCCGGAGTCACCTAGTGCAG,10100 fluorescence intensity (a.u.)
11,CAAGCACTCAGAGGTGGGGTGGGGCCACATCGTCAGTGAACGGAGTCACCTAGTGCAG,9260 fluorescence intensity (a.u.)
12,TCTTTTGCATCATTCATTTTCACCTGCATGACGACTTAAACGGAGTCACCTAGTGCAG,14500 fluorescence intensity (a.u.)
13,TCCTACAATTGATCCTTGCTTAATTATTGATAATGTTTCTCGGAGTCACCTAGTGCAG,8270 fluorescence intensity (a.u.)
14,GCGCGAGAGGCGCGCGAGGCGGCGGCGGGGAGGTGGCGGCCGGAGTCACCTAGTGCAG,8780 fluorescence intensity (a.u.)
15,CATAGCCCTCATCGCGAACCCGCAGACGCGCGCTACGACCCGGAGTCACCTAGTGCAG,9120 fluorescence intensity (a.u.)
16,CCTCGCTGCCGCCGCCGCCGCATCTGACCACCCGGCGATGCGGAGTCACCTAGTGCAG,9880 fluorescence intensity (a.u.)
17,CCACTACTACGCGATTGATTTTCCTAGACTCTTTGTTTCCCGGAGTCACCTAGTGCAG,8290 fluorescence intensity (a.u.)
18,CTCTTGCACTATAATTTCATTTGCATTCTCATATCAGCCGCGGAGTCACCTAGTGCAG,10300 fluorescence intensity (a.u.)
19,GCTCCCGTCCATGGCCGCTGCTGCTCCTACCACTCACTAACGGAGTCACCTAGTGCAG,9320 fluorescence intensity (a.u.)
20,GTCACTGTGAATTTATCGATTACTCGATTTGGTTCTTGGTCGGAGTCACCTAGTGCAG,10300 fluorescence intensity (a.u.)
21,AATTAACCTGGCAGCTGATACACGTACTCTTGCTTTGGCCCGGAGTCACCTAGTGCAG,8090 fluorescence intensity (a.u.)

# Laid out differently: entries from further up.
row | Sequence | binding signal
10 | CCATTGTCCCCGCCGTCCCCGCCGTCCACGCCGGCGCCGCCGGAGTCACCTAGTGCAG | 10100 fluorescence intensity (a.u.)
11 | CAAGCACTCAGAGGTGGGGTGGGGCCACATCGTCAGTGAACGGAGTCACCTAGTGCAG | 9260 fluorescence intensity (a.u.)
12 | TCTTTTGCATCATTCATTTTCACCTGCATGACGACTTAAACGGAGTCACCTAGTGCAG | 14500 fluorescence intensity (a.u.)
13 | TCCTACAATTGATCCTTGCTTAATTATTGATAATGTTTCTCGGAGTCACCTAGTGCAG | 8270 fluorescence intensity (a.u.)
14 | GCGCGAGAGGCGCGCGAGGCGGCGGCGGGGAGGTGGCGGCCGGAGTCACCTAGTGCAG | 8780 fluorescence intensity (a.u.)
15 | CATAGCCCTCATCGCGAACCCGCAGACGCGCGCTACGACCCGGAGTCACCTAGTGCAG | 9120 fluorescence intensity (a.u.)
16 | CCTCGCTGCCGCCGCCGCCGCATCTGACCACCCGGCGATGCGGAGTCACCTAGTGCAG | 9880 fluorescence intensity (a.u.)
17 | CCACTACTACGCGATTGATTTTCCTAGACTCTTTGTTTCCCGGAGTCACCTAGTGCAG | 8290 fluorescence intensity (a.u.)
18 | CTCTTGCACTATAATTTCATTTGCATTCTCATATCAGCCGCGGAGTCACCTAGTGCAG | 10300 fluorescence intensity (a.u.)
19 | GCTCCCGTCCATGGCCGCTGCTGCTCCTACCACTCACTAACGGAGTCACCTAGTGCAG | 9320 fluorescence intensity (a.u.)
20 | GTCACTGTGAATTTATCGATTACTCGATTTGGTTCTTGGTCGGAGTCACCTAGTGCAG | 10300 fluorescence intensity (a.u.)

# The results go on.

row,Sequence,binding signal
1,ACATCTCATTCCTTCTCCTTTTTCTTCTCCTCACACACTACGGAGTCACCTAGTGCAG,11100 fluorescence intensity (a.u.)
2,GCCTGTGTTCGCTGTTGCTAGCTCTCTCGACGAGATGACACGGAGTCACCTAGTGCAG,8500 fluorescence intensity (a.u.)
3,GAAGCAGGTGGTTTTCTTCACCCACCAACCGCCGTCTCCGCGGAGTCACCTAGTGCAG,9380 fluorescence intensity (a.u.)
4,CTCGCTTATTAGCTTCCCTGTACTCAGTATTAATCAGCAACGGAGTCACCTAGTGCAG,8520 fluorescence intensity (a.u.)
5,TAGTAGTAGACACTAAAGGCTGTGTTCTTTGCTTATCGTTCGGAGTCACCTAGTGCAG,9190 fluorescence intensity (a.u.)
6,GCATTCGTTTCAGGCTGTTCCCAACCTCTCTCCCTTGTTTCGGAGTCACCTAGTGCAG,12000 fluorescence intensity (a.u.)
7,TAAATTGCGTTCTGGGCCACATTTTATTATCTAAGTTTCACGGAGTCACCTAGTGCAG,9090 fluorescence intensity (a.u.)
8,TGCCACAAAAAATCCCACCTGTTCCAAATCCTACTCGTGTCGGAGTCACCTAGTGCAG,8580 fluorescence intensity (a.u.)
9,CCCCGTCGTGCTCCGCGGCGGCGCGCTCTTCTGGCCGCCGCGGAGTCACCTAGTGCAG,12500 fluorescence intensity (a.u.)
10,ATTCACCGATTTCTATTTTCTGCATACATATTTCTTAAACCGGAGTCACCTAGTGCAG,9490 fluorescence intensity (a.u.)
11,CTCTATGCTTATCCATGTGCATTTTTGCATAAAAGCTCCGCGGAGTCACCTAGTGCAG,8460 fluorescence intensity (a.u.)
12,AGCCACGCCCACGACCCGCAACTATAGTACGTACAACCTCCGGAGTCACCTAGTGCAG,9340 fluorescence intensity (a.u.)
13,CAAACACGCCCTTATCCGCGCGCCTCATCGCCTCGCCAAGCGGAGTCACCTAGTGCAG,8160 fluorescence intensity (a.u.)
14,ACGAAGGGAGTGTTATATTTGTTTGGGGTTAGGACCTGAACGGAGTCACCTAGTGCAG,9070 fluorescence intensity (a.u.)
15,TCGTTTCTGGTTGCTAGTAATAATTTTGCGCGCTTGCTTCCGGAGTCACCTAGTGCAG,8520 fluorescence intensity (a.u.)
16,CTAACGTCACGCTTTCCATCCCATCTCTCTTTTTTTCCGTCGGAGTCACCTAGTGCAG,8240 fluorescence intensity (a.u.)
17,TACCGGTGTAAATACAGTTGCATGCTGTCTTTTTCTGTTTCGGAGTCACCTAGTGCAG,10500 fluorescence intensity (a.u.)
18,TTCCTTATTCTTTAACTTTATTGGGTCATTTAACTTTTTGCGGAGTCACCTAGTGCAG,8800 fluorescence intensity (a.u.)
19,ATTATATTGATCAATGACTCTGCTACTACTGCTCCCATATCGGAGTCACCTAGTGCAG,8780 fluorescence intensity (a.u.)
20,ATTCCGGTCATTTACGCGCTTTTAGCTTTGCCCTTCATTTCGGAGTCACCTAGTGCAG,17200 fluorescence intensity (a.u.)
21,TCTCATCATGGTATGGGCTGGGTATTAGGCTGGCTTTAACCGGAGTCACCTAGTGCAG,12800 fluorescence intensity (a.u.)
